This note sets out measurements from patent publication US11407979B2, “Intermittent starvation techniques to prolong functional lifetime of liver cells in culture” (Colorado State University Research Foundation, priority 2017, dated 2022).

The data set deals with primary human hepatocytes in micropatterned co-cultures (MPCCs).

For the compound `CCCCc1oc2ccccc2c1C(=O)c1cc(I)c(OCCN(CC)CC)c(I)c1` [amiodarone], the “TC50 values for albumin production, non-starved cells compared with starved cells” value is “similar” and the “TC50 values for urea production, non-starved cells compared with starved cells” value is reported as “similar”.
